Results on three molecules are retold here after article PMC11876336.

Protein sequences, listed by entry. Tags and fused reporters are not part of them.
UniProt Q16665: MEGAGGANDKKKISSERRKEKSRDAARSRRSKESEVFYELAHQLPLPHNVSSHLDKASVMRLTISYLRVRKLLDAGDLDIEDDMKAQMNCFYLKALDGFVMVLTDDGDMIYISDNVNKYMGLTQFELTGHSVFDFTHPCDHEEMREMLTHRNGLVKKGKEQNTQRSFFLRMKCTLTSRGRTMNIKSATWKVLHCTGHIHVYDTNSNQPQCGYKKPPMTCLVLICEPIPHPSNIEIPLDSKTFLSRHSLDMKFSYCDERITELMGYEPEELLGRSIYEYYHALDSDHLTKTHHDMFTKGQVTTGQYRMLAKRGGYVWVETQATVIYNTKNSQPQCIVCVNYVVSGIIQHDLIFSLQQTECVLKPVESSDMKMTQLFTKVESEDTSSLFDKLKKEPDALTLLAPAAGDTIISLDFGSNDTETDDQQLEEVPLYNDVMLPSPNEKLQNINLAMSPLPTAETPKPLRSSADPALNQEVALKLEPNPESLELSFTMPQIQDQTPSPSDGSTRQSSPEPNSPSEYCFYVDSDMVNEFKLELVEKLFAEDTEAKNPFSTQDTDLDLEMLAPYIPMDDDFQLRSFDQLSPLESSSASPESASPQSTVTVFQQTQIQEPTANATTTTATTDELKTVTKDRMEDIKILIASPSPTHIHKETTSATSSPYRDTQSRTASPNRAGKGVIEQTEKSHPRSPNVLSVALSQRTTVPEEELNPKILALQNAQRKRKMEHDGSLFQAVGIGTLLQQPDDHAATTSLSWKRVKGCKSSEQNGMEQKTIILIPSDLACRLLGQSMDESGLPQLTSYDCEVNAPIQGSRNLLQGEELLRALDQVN
UniProt Q9UBN7: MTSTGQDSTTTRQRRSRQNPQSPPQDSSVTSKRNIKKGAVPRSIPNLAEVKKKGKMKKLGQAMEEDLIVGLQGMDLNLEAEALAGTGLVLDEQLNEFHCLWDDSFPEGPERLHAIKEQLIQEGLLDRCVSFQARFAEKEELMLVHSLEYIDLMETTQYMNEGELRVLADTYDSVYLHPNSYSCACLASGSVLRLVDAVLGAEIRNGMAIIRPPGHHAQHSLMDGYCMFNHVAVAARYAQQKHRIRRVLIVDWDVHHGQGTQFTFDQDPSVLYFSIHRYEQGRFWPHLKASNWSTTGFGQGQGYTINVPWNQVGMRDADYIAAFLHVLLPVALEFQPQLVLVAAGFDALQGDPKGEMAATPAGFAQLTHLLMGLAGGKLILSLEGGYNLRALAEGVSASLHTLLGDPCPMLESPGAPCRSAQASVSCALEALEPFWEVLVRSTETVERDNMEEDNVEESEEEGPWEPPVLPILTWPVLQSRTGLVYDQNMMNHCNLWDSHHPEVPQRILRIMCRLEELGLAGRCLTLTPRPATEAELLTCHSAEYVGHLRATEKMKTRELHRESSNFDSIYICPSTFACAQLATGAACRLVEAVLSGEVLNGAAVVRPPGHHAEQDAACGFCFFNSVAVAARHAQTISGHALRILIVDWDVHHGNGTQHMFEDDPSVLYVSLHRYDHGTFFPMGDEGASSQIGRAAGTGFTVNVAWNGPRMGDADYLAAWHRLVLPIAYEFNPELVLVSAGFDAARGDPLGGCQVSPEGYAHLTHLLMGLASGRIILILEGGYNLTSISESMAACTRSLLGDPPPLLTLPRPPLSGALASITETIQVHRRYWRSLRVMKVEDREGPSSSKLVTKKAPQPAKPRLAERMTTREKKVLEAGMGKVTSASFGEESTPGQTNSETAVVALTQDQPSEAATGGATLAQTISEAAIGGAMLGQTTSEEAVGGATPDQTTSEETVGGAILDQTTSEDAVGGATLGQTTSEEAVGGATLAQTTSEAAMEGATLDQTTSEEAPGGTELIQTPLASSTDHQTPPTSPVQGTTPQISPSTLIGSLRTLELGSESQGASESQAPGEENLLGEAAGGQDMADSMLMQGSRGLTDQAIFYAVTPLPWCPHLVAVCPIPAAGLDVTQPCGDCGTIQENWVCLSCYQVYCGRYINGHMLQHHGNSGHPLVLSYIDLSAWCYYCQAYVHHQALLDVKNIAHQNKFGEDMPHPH

The target of the test is hypoxia-inducible factor 1α (human (endogenous in human colon cancer cell lines)) (UniProt Q16665). The experiment in a line: affinity purification with mass spectrometry; Co-IP of HIF-1α followed by mass spectrometry; cells not given.

No constants are given. Whether binding was seen depends on the method and setting. In cells and extracts the contact can be indirect. A yes stands for co-enrichment or nearness to the bait. Other partners may have been found.

As to “histone deacetylase 6 (from UniProt Q9UBN7 1-1215) (enzyme)”, the binding result is given as “binds”.

B1: NAA10 (protein, UniProt P41227 1-235)
chain: MNIRNARPEDLMNMQHCNLLCLPENYQMKYYFYHGLSWPQLSYIAEDENGKIVGYVLAKMEEDPDDVPHGHITSLAVKRSHRRLGLAQKLMDQASRAMIENFNAKYVSLHVRKSNRAALHLYSNTLNFQISEVEPKYYADGEDAYAMKRDLTQMADELRRHLELKEKGRHVVLGAIENKVESKGNSPPSSGEACREEKGLAAEDSGGDSKDLSEVSETTESTDVKDSSEASDSAS
As to B1, the binding result was “binds”.

B2: HNF4A (protein, UniProt P41235 1-474)
chain: MRLSKTLVDMDMADYSAALDPAYTTLEFENVQVLTMGNDTSPSEGTNLNAPNSLGVSALCAICGDRATGKHYGASSCDGCKGFFRRSVRKNHMYSCRFSRQCVVDKDKRNQCRYCRLKKCFRAGMKKEAVQNERDRISTRRSSYEDSSLPSINALLQAEVLSRQITSPVSGINGDIRAKKIASIADVCESMKEQLLVLVEWAKYIPAFCELPLDDQVALLRAHAGEHLLLGATKRSMVFKDVLLLGNDYIVPRHCPELAEMSRVSIRILDELVLPFQELQIDDNEYAYLKAIIFFDPDAKGLSDPGKIKRLRSQVQVSLEDYINDRQYDSRGRFGELLLLLPTLQSITWQMIEQIQFIKLFGMAKIDNLLQEMLLGGSPSDAPHAHHPLHPHLMQEHMGTNVIVANTMPTHLSNGQMCEWPRPRGQAATPETPQPSPPGGSGSEPYKLLPGAVATIVKPLSAIPQPTITKQEVI
As to B2, the binding entry is “binds”.
